Data taken from paper doi:10.1101/2025.08.22.671882.
No constants are given. Whether binding was seen depends on the method and setting. In cells and extracts the contact can be indirect. Some entries that bind do so weakly or less than the wild type. For some of these results: Where a sequence is shown, tags or fusion partners need not be part of it.

The chains behind the UniProt entries cited, without tags or fusion partners. Where a name states a change or a piece, a line headed by the entry shows the natural chain unless it says otherwise. A line that says so, or that is headed by a name, gives the form on record, which may keep a tag or linker.
UniProt Q07955: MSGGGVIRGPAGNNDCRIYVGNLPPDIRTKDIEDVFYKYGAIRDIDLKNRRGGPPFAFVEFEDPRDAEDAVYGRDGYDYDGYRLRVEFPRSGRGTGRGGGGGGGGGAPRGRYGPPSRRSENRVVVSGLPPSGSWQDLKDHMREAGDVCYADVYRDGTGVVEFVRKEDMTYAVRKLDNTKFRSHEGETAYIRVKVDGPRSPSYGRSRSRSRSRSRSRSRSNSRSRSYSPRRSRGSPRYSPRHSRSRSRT
T7-tagged SRSF1 inactivated RRM1 mutant (FFDD) (Q07955, form named): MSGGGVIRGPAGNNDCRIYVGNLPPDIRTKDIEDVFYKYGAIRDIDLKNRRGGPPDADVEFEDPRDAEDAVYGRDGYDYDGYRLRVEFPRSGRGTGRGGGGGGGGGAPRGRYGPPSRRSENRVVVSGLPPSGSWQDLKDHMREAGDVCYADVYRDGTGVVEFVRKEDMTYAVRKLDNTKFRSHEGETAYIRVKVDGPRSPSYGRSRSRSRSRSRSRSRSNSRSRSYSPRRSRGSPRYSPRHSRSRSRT

Experiments:
Experiment in all cases: co-IP
[1] = target: T7-tagged SRSF1 inactivated RRM1 mutant (FFDD) (UniProt Q07955)
[2] = target: T7-tagged SRSF1 (unmutated) expressed in 293T cells (UniProt Q07955)
[3] = target: T7-tagged SRSF1 expressed in SUIT-2 cells (UniProt Q07955)
[4] = target: SRSF1 (serine/arginine-rich splicing factor 1), endogenous (human (endogenous in SUIT-2 and PANC-1)) (UniProt Q07955)

binding [1] | binding [2] | binding [3] | binding [4] | Binder
binds | binds | – | – | Flag-USP39 (enzyme, UniProt Q53GS9 1-565) MSGRSKRESRGSTRGKRESESRGSSGRVKRERDREREPEAASSRGSPVRVKREFEPASAREAPASVVPFVRVKREREVDEDSEPEREVRAKNGRVDSEDRRSRHCPYLDTINRSVLDFDFEKLCSISLSHINAYACLVCGKYFQGRGLKSHAYIHSVQFSHHVFLNLHTLKFYCLPDNYEIIDSSLEDITYVLKPTFTKQQIANLDKQAKLSRAYDGTTYLPGIVGLNNIKANDYANAVLQALSNVPPLRNYFLEEDNYKNIKRPPGDIMFLLVQRFGELMRKLWNPRNFKAHVSPHEMLQAVVLCSKKTFQITKQGDGVDFLSWFLNALHSALGGTKKKKKTIVTDVFQGSMRIFTKKLPHPDLPAEEKEQLLHNDEYQETMVESTFMYLTLDLPTAPLYKDEKEQLIIPQVPLFNILAKFNGITEKEYKTYKENFLKRFQLTKLPPYLIFCIKRFTKNNFFVEKNPTIVNFPITNVDLREYLSEEVQAVHKNTTYDLIANIVHDGKPSEGSYRIHVLHHGTGKWYELQDLQVTDILPQMITLSEAYIQIWKRRDNDETNQQGA
– | – | binds | binds | USP39, endogenous (enzyme, UniProt Q53GS9 1-565) MSGRSKRESRGSTRGKRESESRGSSGRVKRERDREREPEAASSRGSPVRVKREFEPASAREAPASVVPFVRVKREREVDEDSEPEREVRAKNGRVDSEDRRSRHCPYLDTINRSVLDFDFEKLCSISLSHINAYACLVCGKYFQGRGLKSHAYIHSVQFSHHVFLNLHTLKFYCLPDNYEIIDSSLEDITYVLKPTFTKQQIANLDKQAKLSRAYDGTTYLPGIVGLNNIKANDYANAVLQALSNVPPLRNYFLEEDNYKNIKRPPGDIMFLLVQRFGELMRKLWNPRNFKAHVSPHEMLQAVVLCSKKTFQITKQGDGVDFLSWFLNALHSALGGTKKKKKTIVTDVFQGSMRIFTKKLPHPDLPAEEKEQLLHNDEYQETMVESTFMYLTLDLPTAPLYKDEKEQLIIPQVPLFNILAKFNGITEKEYKTYKENFLKRFQLTKLPPYLIFCIKRFTKNNFFVEKNPTIVNFPITNVDLREYLSEEVQAVHKNTTYDLIANIVHDGKPSEGSYRIHVLHHGTGKWYELQDLQVTDILPQMITLSEAYIQIWKRRDNDETNQQGA
